Source: article PMC2843647
Results are given in words; binding and its absence hold for the method and conditions named. In cells and extracts the contact can be indirect. Some results given as binding are weak or reduced against the parent protein; the word gives no strength.

Amino acid sequences for entries named in this document (tags omitted). A change or cut given only in a name is not applied to a line headed by its entry.
UniProt Q15788: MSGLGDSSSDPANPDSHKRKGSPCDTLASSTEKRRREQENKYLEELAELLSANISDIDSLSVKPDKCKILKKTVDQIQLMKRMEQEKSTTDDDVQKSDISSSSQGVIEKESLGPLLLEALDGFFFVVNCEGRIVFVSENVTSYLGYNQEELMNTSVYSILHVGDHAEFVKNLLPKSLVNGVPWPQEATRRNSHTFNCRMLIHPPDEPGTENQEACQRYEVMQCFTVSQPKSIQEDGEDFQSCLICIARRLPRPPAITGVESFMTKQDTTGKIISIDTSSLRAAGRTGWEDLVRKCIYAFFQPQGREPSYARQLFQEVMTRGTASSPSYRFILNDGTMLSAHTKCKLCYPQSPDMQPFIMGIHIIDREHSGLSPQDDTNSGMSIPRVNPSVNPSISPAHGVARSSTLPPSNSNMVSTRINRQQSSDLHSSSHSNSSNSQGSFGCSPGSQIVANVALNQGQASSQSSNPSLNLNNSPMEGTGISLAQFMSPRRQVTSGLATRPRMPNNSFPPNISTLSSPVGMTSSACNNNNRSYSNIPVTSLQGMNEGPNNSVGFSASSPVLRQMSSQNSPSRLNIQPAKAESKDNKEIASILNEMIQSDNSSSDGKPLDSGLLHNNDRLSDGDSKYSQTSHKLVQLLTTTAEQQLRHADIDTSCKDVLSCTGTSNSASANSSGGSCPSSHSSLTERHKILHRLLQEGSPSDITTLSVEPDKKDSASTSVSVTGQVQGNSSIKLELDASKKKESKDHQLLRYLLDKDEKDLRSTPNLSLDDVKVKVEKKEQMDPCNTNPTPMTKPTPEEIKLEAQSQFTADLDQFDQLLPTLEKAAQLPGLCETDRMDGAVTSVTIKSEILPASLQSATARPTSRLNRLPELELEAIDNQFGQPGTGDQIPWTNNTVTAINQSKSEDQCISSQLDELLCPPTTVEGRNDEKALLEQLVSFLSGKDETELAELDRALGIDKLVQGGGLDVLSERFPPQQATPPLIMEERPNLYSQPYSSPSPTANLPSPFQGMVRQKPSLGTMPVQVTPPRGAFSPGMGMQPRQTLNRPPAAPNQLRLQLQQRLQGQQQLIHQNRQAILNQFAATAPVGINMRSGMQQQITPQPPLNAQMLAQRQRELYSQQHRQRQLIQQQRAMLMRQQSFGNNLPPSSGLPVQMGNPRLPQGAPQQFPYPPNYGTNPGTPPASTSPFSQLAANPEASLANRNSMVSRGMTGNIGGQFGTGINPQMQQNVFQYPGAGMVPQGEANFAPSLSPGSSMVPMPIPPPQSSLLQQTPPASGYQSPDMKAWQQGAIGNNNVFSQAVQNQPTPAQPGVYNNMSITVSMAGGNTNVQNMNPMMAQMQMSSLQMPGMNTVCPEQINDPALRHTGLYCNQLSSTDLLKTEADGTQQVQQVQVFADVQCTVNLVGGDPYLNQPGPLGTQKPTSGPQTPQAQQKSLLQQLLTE
UniProt Q7Z6E9: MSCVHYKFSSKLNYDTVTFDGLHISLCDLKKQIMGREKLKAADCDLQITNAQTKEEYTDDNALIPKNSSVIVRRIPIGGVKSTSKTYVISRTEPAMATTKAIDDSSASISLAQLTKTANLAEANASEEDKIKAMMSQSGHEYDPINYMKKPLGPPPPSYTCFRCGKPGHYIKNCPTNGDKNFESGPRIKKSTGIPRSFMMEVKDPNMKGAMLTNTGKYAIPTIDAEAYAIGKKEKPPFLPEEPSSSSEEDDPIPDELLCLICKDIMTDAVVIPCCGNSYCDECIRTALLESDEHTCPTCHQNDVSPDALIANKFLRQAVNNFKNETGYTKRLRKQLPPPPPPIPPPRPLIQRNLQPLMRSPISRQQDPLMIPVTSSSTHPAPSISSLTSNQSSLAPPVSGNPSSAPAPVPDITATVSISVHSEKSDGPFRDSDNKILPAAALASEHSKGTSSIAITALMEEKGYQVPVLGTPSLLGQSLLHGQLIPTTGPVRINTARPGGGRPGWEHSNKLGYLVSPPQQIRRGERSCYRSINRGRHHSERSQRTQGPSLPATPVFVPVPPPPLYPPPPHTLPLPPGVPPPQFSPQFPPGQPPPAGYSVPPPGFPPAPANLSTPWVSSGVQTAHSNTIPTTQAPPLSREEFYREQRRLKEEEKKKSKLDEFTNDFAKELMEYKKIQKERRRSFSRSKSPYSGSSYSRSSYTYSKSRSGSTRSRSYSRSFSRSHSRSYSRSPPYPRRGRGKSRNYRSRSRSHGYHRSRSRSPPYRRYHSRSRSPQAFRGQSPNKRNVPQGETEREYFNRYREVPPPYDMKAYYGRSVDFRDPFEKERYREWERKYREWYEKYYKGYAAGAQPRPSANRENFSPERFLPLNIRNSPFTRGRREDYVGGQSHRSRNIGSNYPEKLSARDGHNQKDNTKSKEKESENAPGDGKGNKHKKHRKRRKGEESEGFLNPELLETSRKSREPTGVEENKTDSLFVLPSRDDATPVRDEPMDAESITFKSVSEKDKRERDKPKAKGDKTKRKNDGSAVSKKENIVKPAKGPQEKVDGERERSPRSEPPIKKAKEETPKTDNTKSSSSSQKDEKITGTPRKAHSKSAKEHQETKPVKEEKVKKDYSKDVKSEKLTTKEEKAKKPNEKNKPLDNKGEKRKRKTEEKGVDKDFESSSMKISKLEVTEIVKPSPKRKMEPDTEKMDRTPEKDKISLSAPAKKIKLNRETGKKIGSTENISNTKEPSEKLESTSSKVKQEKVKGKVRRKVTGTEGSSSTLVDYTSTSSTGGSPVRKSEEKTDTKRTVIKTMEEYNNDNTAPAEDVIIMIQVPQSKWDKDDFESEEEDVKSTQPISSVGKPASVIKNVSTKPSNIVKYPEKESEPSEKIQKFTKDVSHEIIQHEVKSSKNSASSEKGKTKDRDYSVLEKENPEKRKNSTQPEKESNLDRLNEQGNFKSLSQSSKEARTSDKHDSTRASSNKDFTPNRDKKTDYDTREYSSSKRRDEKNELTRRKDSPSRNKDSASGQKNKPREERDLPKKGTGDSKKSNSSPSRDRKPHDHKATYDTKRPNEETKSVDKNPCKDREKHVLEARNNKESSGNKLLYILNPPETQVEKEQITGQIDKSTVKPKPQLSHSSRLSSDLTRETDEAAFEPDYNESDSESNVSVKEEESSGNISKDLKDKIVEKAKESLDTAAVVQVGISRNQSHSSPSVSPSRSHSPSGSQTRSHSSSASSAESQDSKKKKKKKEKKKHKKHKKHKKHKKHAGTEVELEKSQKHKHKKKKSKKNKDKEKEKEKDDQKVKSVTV

Assays:
[1] = target: steroid receptor co-activator 1 (human (endogenous in HeLa)) (UniProt Q15788); test: co-IP; endogenous proteins, HeLa extracts, about 1 mg of total cell extract per immunoprecipitation; immunoprecipitation with anti-SRC-1 or anti-P2P-R, blot with anti-P2P-R or anti-SRC-1
[2] = target: P2P-R protein (human (endogenous in HeLa and MCF-7)) (UniProt Q7Z6E9); test: as above

| Substance | binding [1] | binding [2] |
| --- | --- | --- |
| P2P-R protein (from UniProt Q7Z6E9 1-1792) | binds |  |
| steroid receptor co-activator 1 (from UniProt Q15788 1-1441) |  | binds |
